Source: PubChem BioAssay AID1259405 (NCATS, 2018)

Screen: 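Mouse-designed siRNAs used to find CHO productivity engineering targets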 (primary screen)
Cells: Chinese hamster CHO-K1 ovary cells with stable secreted eGFP expression
Reagents: single siRNA against mouse genes, 0.8 pmol siRNA per well (2 µl of 400 nM stock)
Duration: 3 days
Measured: 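Per-well intracellular GFP measured by laser scanning cytometry, plus viability from ATP luminescence, each relative to plate median of non-targeting control wells, in %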
Direction: GFP, % of control: higher = more GFP per well, higher productivity; viability (ATP), % of control: higher = more viable cells (more ATP)
Call rule: 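a knock-down is called active if GFP reaches 120% or more of non-targeting control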
Shown is a random part of about 50,000 reagents tested. About 4,000 of them (8%) count as active. 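Mouse siRNA library applied to hamster cells; one well for each siRNA.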 A number with no mark means an inactive call. Reagents against one gene are numbered here.

The opening 7 entries, ahead of the listing:
Target gene,siRNA no.,"GFP, % of control","viability (ATP), % of control"
Has3 (GeneID 15118),1,64.7,117
Has3 (GeneID 15118),2,90.4,125
Has3 (GeneID 15118),3,47.8,73.1
Robo4 (GeneID 74144),1,57.3,58.4
Robo4 (GeneID 74144),2,89.5,82.2
Ccl24 (GeneID 56221),1,148 (active),181
Ccl24 (GeneID 56221),2,52,52.1

The list itself, from the start:
Target gene,siRNA no.,"GFP, % of control","viability (ATP), % of control"
Has3 (GeneID 15118),1,64.7,117
Has3 (GeneID 15118),2,90.4,125
Has3 (GeneID 15118),3,47.8,73.1
Robo4 (GeneID 74144),1,57.3,58.4
Robo4 (GeneID 74144),2,89.5,82.2
Ccl24 (GeneID 56221),1,148 (active),181
Ccl24 (GeneID 56221),2,52,52.1
Hspb2 (GeneID 69253),1,28.8,35.7
Hspb2 (GeneID 69253),2,119,101
Hspb2 (GeneID 69253),3,109,108
Dync2i2 (GeneID 71820),1,107,52.7
Dync2i2 (GeneID 71820),2,55.1,49.7
Dync2i2 (GeneID 71820),3,83.2,53.9
Inip (GeneID 66209),1,92.8,78.1
Inip (GeneID 66209),2,85.5,59.6
Inip (GeneID 66209),3,95.6,77.3
Faah (GeneID 14073),1,75.4,70.6
Faah (GeneID 14073),2,66.4,65.7
Faah (GeneID 14073),3,44,63.6
Zfp42 (GeneID 22702),1,50.6,56.9
Zfp42 (GeneID 22702),2,69.4,70.7
Zfp42 (GeneID 22702),3,55.2,63.6
Timm10b (GeneID 14356),1,49.4,63.1
Timm10b (GeneID 14356),2,94.2,75.2
Nrip2 (GeneID 60345),1,52.2,59
Nrip2 (GeneID 60345),2,50.2,29.6
Nrip2 (GeneID 60345),3,98.5,55.6
Srsf10 (GeneID 14105),1,68.1,56.8
Srsf10 (GeneID 14105),2,71.2,68.9
Srsf10 (GeneID 14105),3,125 (active),75.4
Dusp21 (GeneID 73547),1,88.4,59.4
Dusp21 (GeneID 73547),2,83.7,85.7
Dusp21 (GeneID 73547),3,74.1,98.6
Vmn1r8 (GeneID 171205),1,76.8,75.3
Vmn1r8 (GeneID 171205),2,84.7,75
Vmn1r8 (GeneID 171205),3,86.5,103
Tbc1d13 (GeneID 70296),1,35.9,38.5
Tbc1d13 (GeneID 70296),2,70.2,63.9
Tbc1d13 (GeneID 70296),3,80.8,79
Ovgp1 (GeneID 12659),1,50.8,54.1
Ovgp1 (GeneID 12659),2,70.1,76.9
Ovgp1 (GeneID 12659),3,92.6,95.3
Myl12a (GeneID 67268),1,138 (active),73.4
Myl12a (GeneID 67268),2,118,103
Rpe65 (GeneID 19892),1,83.8,99.7
Rpe65 (GeneID 19892),2,48.3,52.1
Rpe65 (GeneID 19892),3,81.3,73.6
Rpl7a (GeneID 27176),1,86.4,117
Rpl7a (GeneID 27176),2,111,88.9
Rpl7a (GeneID 27176),3,104,81.8
Cacna1b (GeneID 12287),1,66,53
Cacna1b (GeneID 12287),2,79.1,48.9
Cacna1b (GeneID 12287),3,73.3,63.1
Invs (GeneID 16348),1,42.5,55.6
Invs (GeneID 16348),2,82.9,65.9
Invs (GeneID 16348),3,78.6,74.1
Tgif2lx1 (GeneID 245583),1,126 (active),133
Tgif2lx1 (GeneID 245583),2,93.5,84.2
Tgif2lx1 (GeneID 245583),3,95.8,87.9
Zfp273 (GeneID 212569),1,76.8,74.8
Zfp273 (GeneID 212569),2,74.1,56.7
Zfp273 (GeneID 212569),3,119,117
A130050O07Rik (GeneID 320138),1,44.5,35.8
A130050O07Rik (GeneID 320138),2,37.6,39.8
A130050O07Rik (GeneID 320138),3,91.2,86.6
Cyp4f13 (GeneID 170716),1,75.8,91.4
Cyp4f13 (GeneID 170716),2,102,104
Cyp4f13 (GeneID 170716),3,72.4,79.1
Bmper (GeneID 73230),1,86.5,66.3
Bmper (GeneID 73230),2,69.2,73.2
Bmper (GeneID 73230),3,127 (active),126
Gm5082 (GeneID 328231),1,74.9,51
Gm5082 (GeneID 328231),2,77.1,43.3
Gm5082 (GeneID 328231),3,107,77.3
Top3a (GeneID 21975),1,81.2,110
Top3a (GeneID 21975),2,91.6,95.6
Ddx3x (GeneID 13205),1,44.8,58.1
Ddx3x (GeneID 13205),2,7.7,19.2
Ddx3x (GeneID 13205),3,39.6,113
Vsx2 (GeneID 12677),1,100,94.7
Vsx2 (GeneID 12677),2,100,81.5
Vsx2 (GeneID 12677),3,70,69.1
Nck1 (GeneID 17973),1,58,46.8
Nck1 (GeneID 17973),2,74.6,64.4
Nck1 (GeneID 17973),3,68.1,70.6
